According to the supplement of paper PMC10849652:
Some of the results follow.

Amino acid sequences for entries named in this document (tags omitted). A change or cut given only in a name is not applied to a line headed by its entry.
UniProt Q14746: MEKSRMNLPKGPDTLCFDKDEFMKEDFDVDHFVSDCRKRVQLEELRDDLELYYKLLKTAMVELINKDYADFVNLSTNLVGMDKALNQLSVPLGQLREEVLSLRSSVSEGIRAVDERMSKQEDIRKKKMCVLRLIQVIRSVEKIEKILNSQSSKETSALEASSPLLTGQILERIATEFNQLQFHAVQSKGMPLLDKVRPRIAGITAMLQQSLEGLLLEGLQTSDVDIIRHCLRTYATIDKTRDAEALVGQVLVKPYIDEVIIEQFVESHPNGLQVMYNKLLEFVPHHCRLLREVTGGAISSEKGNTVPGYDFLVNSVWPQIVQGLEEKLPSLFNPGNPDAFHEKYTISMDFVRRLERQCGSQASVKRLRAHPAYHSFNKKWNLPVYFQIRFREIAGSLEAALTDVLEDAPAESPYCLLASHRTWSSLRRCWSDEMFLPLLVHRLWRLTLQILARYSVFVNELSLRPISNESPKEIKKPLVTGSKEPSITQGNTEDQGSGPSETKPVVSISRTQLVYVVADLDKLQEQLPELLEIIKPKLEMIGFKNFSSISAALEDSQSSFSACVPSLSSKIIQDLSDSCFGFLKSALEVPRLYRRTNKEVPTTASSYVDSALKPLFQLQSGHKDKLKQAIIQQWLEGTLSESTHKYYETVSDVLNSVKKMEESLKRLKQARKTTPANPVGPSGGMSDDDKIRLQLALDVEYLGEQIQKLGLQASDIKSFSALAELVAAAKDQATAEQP
UniProt Q9P003: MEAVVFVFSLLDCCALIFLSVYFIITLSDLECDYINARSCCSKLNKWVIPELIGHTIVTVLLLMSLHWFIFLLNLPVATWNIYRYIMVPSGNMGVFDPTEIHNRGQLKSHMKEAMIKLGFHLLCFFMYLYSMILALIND
UniProt Q86X95: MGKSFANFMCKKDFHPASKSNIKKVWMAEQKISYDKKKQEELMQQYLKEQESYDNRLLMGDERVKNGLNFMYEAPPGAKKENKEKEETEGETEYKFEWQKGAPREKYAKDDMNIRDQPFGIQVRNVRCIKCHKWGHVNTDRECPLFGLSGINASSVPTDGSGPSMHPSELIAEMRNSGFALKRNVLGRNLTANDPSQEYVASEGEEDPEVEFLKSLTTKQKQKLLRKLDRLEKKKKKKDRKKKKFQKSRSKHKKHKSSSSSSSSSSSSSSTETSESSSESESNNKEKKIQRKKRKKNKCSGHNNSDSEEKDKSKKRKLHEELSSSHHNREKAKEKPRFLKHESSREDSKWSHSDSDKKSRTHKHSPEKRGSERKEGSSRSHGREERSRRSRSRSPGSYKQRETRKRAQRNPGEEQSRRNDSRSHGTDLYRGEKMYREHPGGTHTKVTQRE
UniProt Q96MW5: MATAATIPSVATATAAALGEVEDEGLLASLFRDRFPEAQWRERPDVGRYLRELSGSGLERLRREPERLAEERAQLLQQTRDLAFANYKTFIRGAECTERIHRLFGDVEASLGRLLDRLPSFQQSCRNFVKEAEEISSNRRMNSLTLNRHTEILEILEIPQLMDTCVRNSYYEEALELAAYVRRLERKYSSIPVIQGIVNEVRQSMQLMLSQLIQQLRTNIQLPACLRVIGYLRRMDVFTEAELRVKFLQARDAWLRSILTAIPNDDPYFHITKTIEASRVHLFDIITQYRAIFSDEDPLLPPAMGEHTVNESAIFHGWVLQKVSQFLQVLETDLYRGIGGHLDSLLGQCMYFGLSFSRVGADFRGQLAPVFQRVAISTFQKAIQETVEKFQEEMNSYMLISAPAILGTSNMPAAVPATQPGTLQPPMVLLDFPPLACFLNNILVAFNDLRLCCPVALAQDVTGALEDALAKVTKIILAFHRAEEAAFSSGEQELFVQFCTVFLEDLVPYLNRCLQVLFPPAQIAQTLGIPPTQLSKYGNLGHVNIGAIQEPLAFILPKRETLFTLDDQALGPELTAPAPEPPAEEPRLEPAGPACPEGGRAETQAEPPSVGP
UniProt P62633: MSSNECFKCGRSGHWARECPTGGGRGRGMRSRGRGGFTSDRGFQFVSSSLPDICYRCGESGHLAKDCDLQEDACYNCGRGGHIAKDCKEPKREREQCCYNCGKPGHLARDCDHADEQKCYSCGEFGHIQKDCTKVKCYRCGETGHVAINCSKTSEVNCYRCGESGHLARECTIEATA
UniProt Q8NCH0: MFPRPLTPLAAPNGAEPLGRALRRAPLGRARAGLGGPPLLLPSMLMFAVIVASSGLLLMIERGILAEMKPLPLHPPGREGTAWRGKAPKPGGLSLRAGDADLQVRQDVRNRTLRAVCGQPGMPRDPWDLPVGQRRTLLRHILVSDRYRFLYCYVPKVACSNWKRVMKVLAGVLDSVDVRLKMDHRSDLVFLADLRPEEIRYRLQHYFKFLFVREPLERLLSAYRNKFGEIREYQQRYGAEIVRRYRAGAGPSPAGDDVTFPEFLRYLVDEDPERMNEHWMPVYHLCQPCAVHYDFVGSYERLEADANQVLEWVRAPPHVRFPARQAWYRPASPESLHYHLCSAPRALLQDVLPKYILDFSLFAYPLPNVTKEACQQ
UniProt P56747: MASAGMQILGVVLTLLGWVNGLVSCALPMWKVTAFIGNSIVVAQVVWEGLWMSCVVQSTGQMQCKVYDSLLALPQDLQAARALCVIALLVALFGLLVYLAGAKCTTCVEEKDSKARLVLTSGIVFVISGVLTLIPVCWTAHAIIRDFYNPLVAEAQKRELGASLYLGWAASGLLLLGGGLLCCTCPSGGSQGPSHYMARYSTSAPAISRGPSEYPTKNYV
UniProt P56277: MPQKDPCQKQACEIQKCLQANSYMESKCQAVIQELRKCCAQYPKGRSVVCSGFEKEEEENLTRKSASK
UniProt O75503: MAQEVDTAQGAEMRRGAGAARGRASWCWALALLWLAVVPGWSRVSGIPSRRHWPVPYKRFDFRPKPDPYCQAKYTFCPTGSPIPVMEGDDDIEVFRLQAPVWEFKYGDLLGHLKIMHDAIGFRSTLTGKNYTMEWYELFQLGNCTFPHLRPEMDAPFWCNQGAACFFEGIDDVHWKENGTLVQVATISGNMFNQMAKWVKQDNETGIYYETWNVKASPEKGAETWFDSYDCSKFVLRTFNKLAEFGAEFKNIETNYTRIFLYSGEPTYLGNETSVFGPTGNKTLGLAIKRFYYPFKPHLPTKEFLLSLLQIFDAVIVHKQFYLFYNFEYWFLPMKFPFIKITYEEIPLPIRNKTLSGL
UniProt Q96F85: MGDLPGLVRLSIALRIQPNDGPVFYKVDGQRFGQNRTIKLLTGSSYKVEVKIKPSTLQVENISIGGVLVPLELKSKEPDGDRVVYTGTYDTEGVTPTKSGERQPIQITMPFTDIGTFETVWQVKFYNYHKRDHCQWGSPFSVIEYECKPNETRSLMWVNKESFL
UniProt Q9UP83: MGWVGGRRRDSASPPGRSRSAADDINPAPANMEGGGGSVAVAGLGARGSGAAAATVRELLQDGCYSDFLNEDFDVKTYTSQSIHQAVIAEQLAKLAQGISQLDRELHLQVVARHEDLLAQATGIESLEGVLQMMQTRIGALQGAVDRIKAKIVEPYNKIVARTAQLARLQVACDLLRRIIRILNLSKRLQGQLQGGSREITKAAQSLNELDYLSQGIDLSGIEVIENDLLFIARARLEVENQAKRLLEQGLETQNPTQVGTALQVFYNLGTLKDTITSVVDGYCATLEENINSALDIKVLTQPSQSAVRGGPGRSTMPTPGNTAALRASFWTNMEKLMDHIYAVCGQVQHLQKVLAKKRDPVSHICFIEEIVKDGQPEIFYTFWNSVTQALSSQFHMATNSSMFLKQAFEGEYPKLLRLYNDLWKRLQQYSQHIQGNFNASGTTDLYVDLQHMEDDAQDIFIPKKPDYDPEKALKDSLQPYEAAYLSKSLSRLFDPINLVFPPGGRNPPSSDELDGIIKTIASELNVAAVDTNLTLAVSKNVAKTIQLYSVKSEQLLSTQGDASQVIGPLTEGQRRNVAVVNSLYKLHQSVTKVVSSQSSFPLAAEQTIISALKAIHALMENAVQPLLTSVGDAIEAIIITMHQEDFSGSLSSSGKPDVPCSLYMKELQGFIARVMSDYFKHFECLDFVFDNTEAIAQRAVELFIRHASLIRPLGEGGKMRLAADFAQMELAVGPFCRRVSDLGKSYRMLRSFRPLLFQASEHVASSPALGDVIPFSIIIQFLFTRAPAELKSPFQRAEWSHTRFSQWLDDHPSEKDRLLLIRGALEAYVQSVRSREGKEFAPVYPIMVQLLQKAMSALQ
UniProt G5E9Z2: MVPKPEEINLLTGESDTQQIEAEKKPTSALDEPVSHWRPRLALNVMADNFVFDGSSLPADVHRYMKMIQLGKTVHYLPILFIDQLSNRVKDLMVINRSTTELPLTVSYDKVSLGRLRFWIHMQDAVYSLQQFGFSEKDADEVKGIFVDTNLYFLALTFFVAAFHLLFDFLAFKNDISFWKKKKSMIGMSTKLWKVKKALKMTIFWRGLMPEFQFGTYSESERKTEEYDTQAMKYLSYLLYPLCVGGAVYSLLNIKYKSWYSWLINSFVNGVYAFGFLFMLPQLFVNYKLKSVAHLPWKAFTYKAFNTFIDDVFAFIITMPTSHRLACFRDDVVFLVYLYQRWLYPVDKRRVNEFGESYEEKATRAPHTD
UniProt Q8N0X4: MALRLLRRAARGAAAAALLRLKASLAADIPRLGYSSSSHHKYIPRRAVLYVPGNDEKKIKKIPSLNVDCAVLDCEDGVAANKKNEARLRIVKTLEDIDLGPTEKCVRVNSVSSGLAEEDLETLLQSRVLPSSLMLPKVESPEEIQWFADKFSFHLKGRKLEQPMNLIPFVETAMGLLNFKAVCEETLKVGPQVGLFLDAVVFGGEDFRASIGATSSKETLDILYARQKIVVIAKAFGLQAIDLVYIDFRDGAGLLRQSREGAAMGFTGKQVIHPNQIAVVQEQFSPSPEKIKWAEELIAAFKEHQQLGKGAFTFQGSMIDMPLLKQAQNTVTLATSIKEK
UniProt Q9NRB3: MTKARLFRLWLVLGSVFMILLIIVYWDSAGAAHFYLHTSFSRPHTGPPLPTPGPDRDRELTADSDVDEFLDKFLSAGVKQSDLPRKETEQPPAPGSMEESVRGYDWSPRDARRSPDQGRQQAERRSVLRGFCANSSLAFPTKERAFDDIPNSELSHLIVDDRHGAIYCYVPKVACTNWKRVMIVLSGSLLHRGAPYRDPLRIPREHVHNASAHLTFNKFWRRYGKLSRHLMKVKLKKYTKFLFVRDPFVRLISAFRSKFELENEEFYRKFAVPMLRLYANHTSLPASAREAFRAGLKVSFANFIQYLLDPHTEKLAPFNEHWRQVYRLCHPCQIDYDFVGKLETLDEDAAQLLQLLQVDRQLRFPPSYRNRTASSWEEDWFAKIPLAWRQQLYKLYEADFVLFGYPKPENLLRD
UniProt Q9Y3Y2: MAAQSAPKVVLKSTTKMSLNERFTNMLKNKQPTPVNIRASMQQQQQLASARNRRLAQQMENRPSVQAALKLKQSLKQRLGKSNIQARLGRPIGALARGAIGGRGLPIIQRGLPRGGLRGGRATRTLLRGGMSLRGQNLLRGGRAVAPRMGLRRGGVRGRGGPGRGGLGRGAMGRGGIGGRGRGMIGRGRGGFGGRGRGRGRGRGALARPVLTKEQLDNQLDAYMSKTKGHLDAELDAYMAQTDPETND
UniProt Q9BQT9: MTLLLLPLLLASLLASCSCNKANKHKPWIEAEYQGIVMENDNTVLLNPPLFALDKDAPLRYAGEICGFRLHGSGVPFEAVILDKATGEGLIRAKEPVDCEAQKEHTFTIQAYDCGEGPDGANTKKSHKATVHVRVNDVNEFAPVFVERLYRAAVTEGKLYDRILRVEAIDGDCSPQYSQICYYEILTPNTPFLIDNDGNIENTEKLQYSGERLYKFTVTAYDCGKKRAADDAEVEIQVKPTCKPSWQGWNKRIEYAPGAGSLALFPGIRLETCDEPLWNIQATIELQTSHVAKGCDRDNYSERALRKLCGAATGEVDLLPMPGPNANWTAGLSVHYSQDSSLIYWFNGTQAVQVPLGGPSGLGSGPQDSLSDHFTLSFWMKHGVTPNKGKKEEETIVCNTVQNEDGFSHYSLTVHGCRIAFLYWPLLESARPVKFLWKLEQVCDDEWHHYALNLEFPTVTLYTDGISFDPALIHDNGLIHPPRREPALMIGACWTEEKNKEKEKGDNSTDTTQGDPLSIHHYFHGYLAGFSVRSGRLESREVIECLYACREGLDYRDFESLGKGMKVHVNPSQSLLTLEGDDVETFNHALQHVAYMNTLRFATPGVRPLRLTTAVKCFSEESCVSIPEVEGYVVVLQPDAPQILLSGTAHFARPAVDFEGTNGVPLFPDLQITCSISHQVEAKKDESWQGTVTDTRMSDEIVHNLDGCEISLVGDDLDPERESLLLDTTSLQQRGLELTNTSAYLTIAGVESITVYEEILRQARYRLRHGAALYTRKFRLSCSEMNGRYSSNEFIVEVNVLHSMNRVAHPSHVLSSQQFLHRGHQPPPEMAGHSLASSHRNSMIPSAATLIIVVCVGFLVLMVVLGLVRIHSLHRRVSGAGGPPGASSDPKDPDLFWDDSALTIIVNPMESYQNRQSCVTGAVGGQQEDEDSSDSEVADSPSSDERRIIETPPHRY

Columns and labels:
Test in all cases: log2 fold change, soluble protein after heating vs DMSO (PISA); higher = thermal stabilisation; K562 cells, 10 uM, 30 min; active = over 0.2 and 3.5 SD of the protein, either way, in both replicates (recomputed)
[1] = compound: CC[C@@H]1C(=O)N(C)c2cnc(Nc3ccc(C(=O)NC4CCN(C)CC4)cc3OC)nc2N1C1CCCC1
Outline: (§1)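 K562 cells at 2×10^6 cells/mL were treated for 30 min with 10 μM compound, and aliquots were heated for 3 min over 48°C-58°C before pooling. Extraction used PBS with 0.5% NP-40 at 4°C, and soluble protein was the supernatant after 21,000xg for 90 min, measured by TMTpro 16plex LC-MS/MS with channel sums equalised. Thermal stability values, relative to control samples and from duplicates, are log2 fold changes.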

[2] = compound: CC[C@H](C)N1C=C(C2=C(C=C(C=C21)C3=CN=C(C=C3)N4CCNCC4)C(=O)NCC5=C(C=C(NC5=O)C)C)C
Outline: as §1

epoxomicin = compound: CC[C@H](C)[C@@H](C(=O)N[C@@H]([C@@H](C)O)C(=O)N[C@@H](CC(C)C)C(=O)[C@]1(CO1)C)NC(=O)[C@H]([C@@H](C)CC)N(C)C(=O)C [epoxomicin]
Outline: as §1

[3] = compound: CCn1c(C(=O)N(C2CC2)C2CC2)cc2c3c(ncn3C)c(Nc3cc(C)n(C)n3)nc21
Outline: as §1

[4] = compound: CN(C)CC(=O)Nc1ccc2[nH]c(=O)c3ccccc3c2c1
Outline: as §1

rosiglitazone = compound: CN(CCOC1=CC=C(C=C1)C[C@H]2C(=O)NC(=O)S2)C3=CC=CC=N3 (racemic) [rosiglitazone]
Outline: as §1

[5] = compound: CN1C2=C(C3=C1C(=O)N(N=C3)CC4=CC(=CC=C4)N)SC(=C2)S(=O)C
Outline: as §1

saracatinib = compound: CN1CCN(CCOc2cc(OC3CCOCC3)c3c(Nc4c(Cl)ccc5c4OCO5)ncnc3c2)CC1 [saracatinib]
Outline: as §1

sotrastaurin = compound: CN1CCN(c2nc(C3=C(c4c[nH]c5ccccc45)C(=O)NC3=O)c3ccccc3n2)CC1 [sotrastaurin]
Outline: as §1

alvocidib = compound: CN1CC[C@H](c2c(O)cc(O)c3c(=O)cc(-c4ccccc4Cl)oc23)[C@H](O)C1 [alvocidib]
Outline: as §1

Tubastatin A = compound: CN1CCc2c(c3ccccc3n2Cc2ccc(C(=O)NO)cc2)C1 [Tubastatin A]
Outline: as §1

[6] = compound: CNC(=O)C1=CC=CC=C1NC2=NC(=NC=C2Cl)NC3=C(C=C(C=C3)N4CCOCC4)OC
Outline: as §1

defactinib = compound: CNC(=O)c1ccc(Nc2ncc(C(F)(F)F)c(NCc3nccnc3N(C)S(C)(=O)=O)n2)cc1 [defactinib]
Outline: as §1

rucaparib = compound: CNCc1ccc(-c2[nH]c3cc(F)cc4c3c2CCNC4=O)cc1 [rucaparib]
Outline: as §1

[7] = compound: CNc1nc(-c2ccc3c(N)n[nH]c3c2)cc(N2C[C@@H](C(=O)NC3CCCCC3)CC[C@H]2C)n1
Outline: as §1

encorafenib = compound: COC(=O)N[C@@H](C)CNc1nccc(-c2cn(C(C)C)nc2-c2cc(Cl)cc(NS(C)(=O)=O)c2F)n1 [encorafenib]
Outline: as §1

[8] = compound: COC(=O)[C@H](CCSC)NC(=O)C1=C(C=C(C=C1)NC[C@H](CS)N)C2=CC=CC=C2
Outline: as §1

[9] = compound: CCn1cc(-c2ccnc3[nH]c(-c4cccc(CN(C)C)c4)cc23)c(-c2ccc(NC(=O)N(C)C)cc2)n1
Outline: as §1

[10] = compound: CN1CCC(CNc2ccc3ncc(-c4cccc(OC(F)(F)F)c4)n3n2)CC1
Outline: as §1

volasertib = compound: CC[C@@H]1C(=O)N(C)c2cnc(Nc3ccc(C(=O)N[C@H]4CC[C@H](N5CCN(CC6CC6)CC5)CC4)cc3OC)nc2N1C(C)C [volasertib]
Outline: as §1

Target	log2 fold change [1]	log2 fold change [2]	log2 fold change (epoxomicin)	log2 fold change [3]	log2 fold change [4]	log2 fold change (rosiglitazone)	log2 fold change [5]	log2 fold change (saracatinib)	log2 fold change (sotrastaurin)	log2 fold change (alvocidib)	log2 fold change (Tubastatin A)	log2 fold change [6]	log2 fold change (defactinib)	log2 fold change (rucaparib)	log2 fold change [7]	log2 fold change (encorafenib)	log2 fold change [8]	log2 fold change [9]	log2 fold change [10]	log2 fold change (volasertib)
CNOT11 (UniProt Q9UKZ1)	inactive: -0.133	inactive: 0.018	inactive: -0.153	inactive: -0.045	inactive: -0.072	inactive: -0.034	inactive: 0.115	inactive: 0.068	inactive: -0.04	inactive: 0.034	inactive: -0.106	inactive: 0.015	inactive: 0.002	inactive: 0.211	inactive: -0.053	inactive: 0.03	inactive: 0.039	–	–	–
COL1A2 (UniProt P08123)	inactive: -0.096	inactive: -0.122	inactive: -0.525	inactive: 0.036	inactive: 0.033	inactive: -0.091	inactive: 0.395	inactive: 0.414	inactive: 0.096	inactive: 0.063	inactive: -0.054	inactive: -0.34	inactive: -0.037	inactive: -0.15	inactive: 0.142	inactive: 0.069	inactive: 0.222	inactive: -0.068	inactive: 0.031	–
CMIP (UniProt Q8IY22)	inactive: 0.03	–	inactive: 0.008	–	–	inactive: 0.059	–	–	inactive: -0.566	–	–	–	–	inactive: 0.044	–	inactive: 0.133	–	inactive: 0.039	inactive: -0.063	–
COG2 (UniProt Q14746)	inactive: -0.173	inactive: -0.357	inactive: 0.008	–	–	–	inactive: 0.302	inactive: 0.001	inactive: -0.32	–	inactive: -0.08	inactive: -0.135	–	inactive: -0.272	inactive: -0.085	inactive: 0.007	–	–	–	–
CNIH4 (UniProt Q9P003)	inactive: 0.028	inactive: 0.033	–	inactive: 0	inactive: -0.033	inactive: -0.107	inactive: -0.067	inactive: 0.195	inactive: 0.023	inactive: -0.037	inactive: -0.025	inactive: -0.315	inactive: 0.018	inactive: -0.044	inactive: -0.023	inactive: -0.145	inactive: 0.042	–	–	inactive: -0.107
CNOT4 isoform 9 (UniProt O95628)	inactive: 0.198	inactive: -0.046	–	–	inactive: 0.046	–	inactive: -0.105	inactive: 0.077	–	–	inactive: -0.027	inactive: 0.187	inactive: -0.129	inactive: -0.057	inactive: -0.021	inactive: -0.05	inactive: 0.038	inactive: -0.095	inactive: 0.072	inactive: -0.006
CIR1 (UniProt Q86X95)	inactive: 0	–	inactive: -0.212	–	inactive: 0.142	–	inactive: 0.234	inactive: -0.02	inactive: -0.039	–	inactive: 0.078	inactive: -0.061	inactive: 0.418	inactive: 0.102	inactive: 0.057	inactive: 0.04	inactive: 0.207	inactive: 0.055	inactive: -0.458	inactive: 0.049
CNTRL (UniProt Q7Z7A1)	inactive: -0.035	inactive: -0.012	–	–	inactive: -0.145	–	inactive: 0.341	inactive: -0.128	inactive: -0.008	inactive: -0.023	inactive: 0.07	–	inactive: 0.002	inactive: -0.107	inactive: -0.17	inactive: 0.136	inactive: 0.009	–	–	–
COG8 (UniProt Q96MW5)	inactive: 0.066	–	inactive: 0.039	–	–	–	–	–	–	inactive: 0.172	–	–	–	inactive: 0.34	–	inactive: -0.14	–	–	–	–
CNBP isoform 4 (UniProt P62633)	inactive: 0.102	inactive: -0.024	–	–	–	inactive: -0.066	–	–	–	–	–	–	–	inactive: 0.049	–	inactive: -0.037	–	–	–	–
CHST14 (UniProt Q8NCH0)	–	inactive: -0.026	inactive: -0.042	inactive: -0.033	inactive: -0.023	inactive: -0.07	inactive: 0.005	inactive: -0.005	–	inactive: 0.06	inactive: -0.043	inactive: -0.051	inactive: 0.015	–	inactive: -0.005	–	inactive: 0.029	inactive: 0.086	inactive: -0.02	inactive: -0.274
CLDN6 (UniProt P56747)	–	–	–	inactive: 0.01	–	–	inactive: 0.189	inactive: -0.042	–	–	–	inactive: -0.119	–	–	inactive: 0.275	–	–	inactive: -0.45	inactive: -0.042	–
CHSY1 (UniProt Q86X52)	–	–	inactive: -0.475	–	–	–	–	–	–	–	–	–	–	–	–	–	–	–	–	–
CMC4 (UniProt P56277)	–	–	–	inactive: -0.163	–	–	inactive: -0.282	inactive: -0.216	–	inactive: -0.076	–	inactive: -0.022	–	–	inactive: 0.001	–	–	inactive: -0.041	inactive: 0.154	inactive: 0.156
CKAP2 (UniProt Q8WWK9)	–	inactive: 0.026	inactive: -0.272	inactive: -0.135	–	–	inactive: 0.395	inactive: -0.084	inactive: -0.036	inactive: 0.127	inactive: 0.094	inactive: 0.05	–	–	inactive: 0.032	–	–	–	–	inactive: -0.356
CLN5 (UniProt O75503)	–	inactive: -0.001	inactive: 0.014	–	–	–	inactive: 0.139	inactive: -0.283	inactive: -0.008	–	inactive: 0.079	inactive: 0.032	–	–	inactive: -0.715	–	–	inactive: -0.183	active: -0.834	active: -1.25
CNRIP1 (UniProt Q96F85)	–	inactive: -0.269	inactive: -0.043	–	–	–	–	–	–	–	–	inactive: 0.053	–	–	–	–	–	–	–	inactive: 0.306
CHST2 (UniProt Q9Y4C5)	–	inactive: -0.086	inactive: 0.134	inactive: -0.045	–	inactive: 0.068	inactive: -0.115	inactive: -0.073	inactive: 0.044	inactive: -0.007	inactive: 0.048	inactive: 0.101	–	–	inactive: 0.009	–	–	–	–	inactive: -0.033
COG5 isoform 2 (UniProt Q9UP83)	–	–	–	inactive: 0.159	inactive: -0.007	–	–	–	–	–	–	inactive: -0.001	inactive: 0.01	–	–	–	inactive: -0.034	–	–	–
CLPTM1L (UniProt G5E9Z2)	–	inactive: -0.055	inactive: 0.247	–	inactive: 0.117	–	–	–	inactive: -0.288	–	inactive: -0.109	–	inactive: 0.002	–	–	–	inactive: -0.029	inactive: 0.116	inactive: 0.052	–
CLYBL (UniProt Q8N0X4)	–	–	–	inactive: -0.007	–	–	–	–	–	–	–	inactive: -0.098	–	–	–	–	–	inactive: -0.058	inactive: 0.054	inactive: -0.161
CLCNKB (UniProt P51801)	–	inactive: 0.052	inactive: 0.171	inactive: 0.086	inactive: 0.194	–	inactive: -0.071	inactive: 0.267	–	inactive: -0.05	–	inactive: 0.105	inactive: -0.04	–	inactive: 0.026	–	inactive: 0.024	inactive: -0.003	inactive: 0.099	inactive: 0.174
CLP1 (UniProt Q92989)	inactive: -0.071	–	–	inactive: -0.203	–	inactive: 0.028	–	–	inactive: -0.06	inactive: -0.116	inactive: 0.1	inactive: -0.026	–	inactive: -0.077	–	inactive: 0.152	–	–	–	–
CHST12 (UniProt Q9NRB3)	–	–	inactive: 0.074	inactive: -0.255	inactive: -0.073	inactive: 0.062	inactive: -0.03	inactive: -0.348	inactive: 0.076	inactive: 0.046	inactive: -0.015	inactive: -0.078	inactive: -0.091	–	inactive: -0.084	–	inactive: -0.016	inactive: 0.009	inactive: 0.023	–
CHTOP isoform 3 (UniProt Q9Y3Y2)	–	–	inactive: -0.197	inactive: 0	inactive: -0.037	–	inactive: 0.158	inactive: -0.379	inactive: -0.27	inactive: 0.091	inactive: 0.044	inactive: 0.081	inactive: 0.424	–	inactive: -0.356	–	inactive: 0.021	–	–	–
CLSTN3 isoform 2 (UniProt Q9BQT9)	–	–	inactive: -0.06	–	inactive: -0.103	–	–	–	–	–	–	–	inactive: 0.022	–	–	–	inactive: 0.207	inactive: -0.252	inactive: 0.506	inactive: -0.114

Full records from above. Order of values: log2 fold change [1]	log2 fold change [2]	log2 fold change (epoxomicin)	log2 fold change [3]	log2 fold change [4]	log2 fold change (rosiglitazone)	log2 fold change [5]	log2 fold change (saracatinib)	log2 fold change (sotrastaurin)	log2 fold change (alvocidib)	log2 fold change (Tubastatin A)	log2 fold change [6]	log2 fold change (defactinib)	log2 fold change (rucaparib)	log2 fold change [7]	log2 fold change (encorafenib)	log2 fold change [8]	log2 fold change [9]	log2 fold change [10]	log2 fold change (volasertib)
CKAP2 (UniProt Q8WWK9) reads –	inactive: 0.026	inactive: -0.272	inactive: -0.135	–	–	inactive: 0.395	inactive: -0.084	inactive: -0.036	inactive: 0.127	inactive: 0.094	inactive: 0.05	–	–	inactive: 0.032	–	–	–	–	inactive: -0.356
CLPTM1L (UniProt G5E9Z2) reads –	inactive: -0.055	inactive: 0.247	–	inactive: 0.117	–	–	–	inactive: -0.288	–	inactive: -0.109	–	inactive: 0.002	–	–	–	inactive: -0.029	inactive: 0.116	inactive: 0.052	–
